Source: patent US10294227B2, “Compounds” (UNIVERSITY COURT OF THE UNIVERSITY OF EDINBURGH, priority 2015, dated 2019)

Experiment: Liver microsome stability
Type: in vitro ADME
Settings: % of unmodified drug after 30 min incubation with liver microsomes

## CCN(CC)CC(=O)Nc1c(C)cccc1C [Lidocaine, reference compound]
  30 min Liver Microsome stability: 92.0%
